Library screening results

Chains of the proteins cited; added tags and fusions are not shown.
UniProt E9BF75, entry or part of it: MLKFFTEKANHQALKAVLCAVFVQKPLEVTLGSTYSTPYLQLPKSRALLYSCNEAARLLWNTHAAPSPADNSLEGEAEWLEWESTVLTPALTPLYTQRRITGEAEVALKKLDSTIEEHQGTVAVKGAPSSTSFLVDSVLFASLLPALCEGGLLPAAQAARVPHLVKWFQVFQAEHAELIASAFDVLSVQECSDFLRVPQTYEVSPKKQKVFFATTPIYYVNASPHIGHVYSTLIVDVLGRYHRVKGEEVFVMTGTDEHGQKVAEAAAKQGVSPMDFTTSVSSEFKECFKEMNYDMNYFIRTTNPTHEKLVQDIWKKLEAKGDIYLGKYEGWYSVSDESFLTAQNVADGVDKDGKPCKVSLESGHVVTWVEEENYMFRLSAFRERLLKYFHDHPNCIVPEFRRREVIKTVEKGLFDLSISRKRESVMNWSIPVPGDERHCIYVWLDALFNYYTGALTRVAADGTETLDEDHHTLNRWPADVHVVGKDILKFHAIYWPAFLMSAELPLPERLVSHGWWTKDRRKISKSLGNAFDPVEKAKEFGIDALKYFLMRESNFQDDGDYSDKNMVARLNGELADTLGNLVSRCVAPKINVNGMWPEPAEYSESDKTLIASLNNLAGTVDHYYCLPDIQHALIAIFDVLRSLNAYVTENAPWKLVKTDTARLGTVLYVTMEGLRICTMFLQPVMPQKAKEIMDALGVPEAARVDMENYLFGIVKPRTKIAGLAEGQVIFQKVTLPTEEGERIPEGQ

Measurements from “University of Dundee, Small-Polar-MMV Screening Library” (2021), ChEMBL document CHEMBL3988442.

All values are in %. The controls that fix the scale are not given in the record; negative values are as filed. This is an unselected part of the compounds tested.

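Primary screen of methionyl-tRNA synthetase; the read-out is not stated. Target: Methionyl-tRNA synthetase (putative), Leishmania donovani (UniProt E9BF75). The test concentration is not given. Values are per cent inhibition. Of about 68,000 compounds tested this way, about 24 (0.035%) reached 50% or more in at least one test.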

| SMILES | Inhibition |
|---|---|
| `CCCn1nc2c(cc1=O)CN(Cc1nc(-c3ccco3)no1)CC2` | 4.737 |
| `Cc1cccc(CNC[C@H]2Cn3cc(-c4ccccc4)nc3CO2)n1` | 11.86 |
| `NC(=O)C1CCCN1Cc1nccn1CC(F)(F)F` (centres unmarked) | 20.24 |
| `Cc1cc(Br)c(O)c(-c2nc(N3CCCCC3)sc2C)c1` | 8.919 |
| `CNC(=O)[C@@H]1C[C@@H](NC(=O)CSc2ccccc2)CN1C1CCOCC1` | 1.117 |
| `CC(C)CC(=O)N1CCN(C(=O)NC(C)C)CC2(CC(=O)N(C)C2)C1` (centres unmarked) | 18.73 |
| `Cc1cc(C)n(CCCNC(=O)C(C)NC(=O)c2ccccc2Cl)n1` (centres unmarked) | 9.859 |
| `CC(C)Oc1ccccc1NC(=O)N1CCC(n2cncn2)CC1` | 25.07 |
| `CC(=O)Nc1ncc(S(=O)(=O)N2CCCC(C)C2)s1` (centres unmarked) | 11.81 |
| `Cc1csc2ncc(-c3ccnc(N4CCCC4)n3)c(=O)n12` | 17.23 |
| `CC(=O)NCC(=O)N1C[C@@H](C)[C@@]2(CCN(c3ccsc3)C2=O)C1` | 6.965 |
| `CC(C)(C)c1nc(CN(CCC2CCCCC2)CC(N)=O)no1` | 4.607 |
| `COC(=O)CCNC(=O)c1cnc(Cc2ccc(F)cc2)s1` | 22.28 |
| `CC(C)Cc1noc(-c2ccc(NCc3noc(C(C)C)n3)nc2)n1` | 9.712 |
| `Cc1cnc2n1CCN(C)C21CCN(CC2CC2)CC1` | 12.2 |
| `COc1ccc(CCNC(=O)Cn2ncc3c2c(C)nn3C)cc1` | -15.33 |
| `Cc1ccc(N2CCC(NC(C)c3cccs3)CC2)nc1` (centres unmarked) | -4.381 |
| `O=C1CC(NCc2cnc(C3CCCCC3)nc2)CN1c1ccccc1` (centres unmarked) | 9.524 |
| `CC(C)CC(C)NC1CCN(c2cccc(-c3cscn3)c2)CC1` (centres unmarked) | 12.1 |
| `CC(C)c1cc(NC(=O)CNC2CCc3nc(C(C)C)nn3C2)on1` (centres unmarked) | 17.62 |
| `CCS(=O)(=O)N1CCC2(CN(Cc3ccc(C)o3)C2)C1` | 10.99 |
| `Cc1ccc(CN2CC[C@H]3[C@H]2CCN3S(=O)(=O)C2CC2)cc1` | 14.29 |
| `CN(Cc1ccc2c(c1)OCCO2)Cc1nc2c(cnn2C)c(=O)[nH]1` | 10.86 |
| `OC[C@H]1CN(Cc2c(Cl)cncc2Cl)C[C@H]1CN1CCOCC1` | 5.155 |
| `CC(O)Cc1cn(CC2CCN(C3CCSCC3)CC2)nn1` (centres unmarked) | 14.2 |
| `COCCc1noc(CN2C(=O)OC[C@@H]2C(C)C)n1` | 14.78 |
| `COc1ccc(C(O)CNC(=O)Cn2ccc(=O)n(C)c2=O)cc1` (centres unmarked) | 3.495 |
| `c1coc(CN2CCC(c3ccc4c(c3)OCO4)CC2)c1` | 5.901 |
| `O=C(NCCCn1nc2ccccn2c1=O)NCCC1CCC1` | 16.86 |
| `Cc1cc(C)c(CNC(=O)NCc2ccc(F)c(C)c2)c(=O)[nH]1` | 26.82 |
| `CC(C(=O)N1CCN(c2ccc(F)cc2)CC1)n1ccnc1` (centres unmarked) | 19.79 |
| `CC(CNS(N)(=O)=O)c1ccc(F)c(F)c1` (centres unmarked) | 9.235 |
| `CN(C)C(=O)CN1CCC2(CC1)CN(S(C)(=O)=O)Cc1ccccc1O2` | 11.49 |
| `CS(=O)(=O)c1ccc(NC(=O)N2C[C@H](O)[C@@H](N3CCOCC3)C2)cc1` | 9.964 |
| `CCC(CC)NCC(c1ccccn1)N1CCOCC1` (centres unmarked) | 8.447 |
| `Cc1nc(C)n(CC2CCCN(CCC(=O)N3CCCCC3)C2)n1` (centres unmarked) | 9.028 |
| `CC(C)C(Sc1nnnn1C1CC1)C(=O)NCc1cccnc1` (centres unmarked) | 11.74 |
| `Cc1cccc(CN2Cc3ncn(C)c3C(COCC(=O)N(C)C)C2)n1` (centres unmarked) | 15.74 |
| `COc1ccc(F)cc1C(=O)C1CCCN(Cc2cnc(C)s2)C1` (centres unmarked) | 13.94 |
| `Cn1cc(C(=O)NCc2cn3c(n2)CN(CC2CCCC2)CC3)cn1` | 10.18 |
| `CCC(CC)C(=O)N1CCc2nc(N3CCCC3)nc(C)c2CC1` | 8.357 |
| `CC(=O)NCCc1ccc(S(=O)(=O)Nc2ccc(C)cc2F)s1` | 12.24 |
| `Cc1cnn(CC2CN(Cc3nnc(-c4occc4C)o3)CCO2)c1` (centres unmarked) | 6.667 |
| `Cc1cc(CNC2(CO)CCOCC2)ccc1Br` | 12.99 |
| `CC(O)(CNC(=O)c1cccnc1-n1cccn1)c1ccsc1` (centres unmarked) | 18.92 |
| `CCc1ncnc2c1CCN(CC(=O)N(C)C)CC2` | 14.55 |
| `Cc1cccc(C(=O)N2CCCN(Cc3cscn3)CC2)c1` | 1.639 |
| `CC(C)NC(=O)CN1CCN(CC2CCOc3ccccc3C2)CC1` (centres unmarked) | 3.226 |
| `COc1ccc(-c2ccncc2)cc1CNC1CCCC1` | 7.617 |
| `CC(C)Oc1ncccc1CNC(=O)c1ccccn1` | 16.87 |
| `CCN1CCC(CNCc2c[nH]nc2C(C)(C)C)C1` (centres unmarked) | 15.38 |
| `Cc1ncc2c(c1CNC(=O)C1(C)CCCCO1)CCNC2` (centres unmarked) | 3.333 |
| `O=C(CCc1cc2n(n1)CCCN(C(=O)c1ccncc1)C2)NC1CC1` | 11.27 |
| `COCCC(=O)N1CCC2(CN(Cc3ccc(OC)c(F)c3)C2)C1` | 11.5 |
| `CC(Nc1cccc(CN2CCOC2=O)c1)C(=O)Nc1ccccc1F` (centres unmarked) | 12.27 |

Repeated from the top, 6 entries:

| SMILES | Inhibition |
|---|---|
| `CCCn1nc2c(cc1=O)CN(Cc1nc(-c3ccco3)no1)CC2` | 4.737 |
| `Cc1cccc(CNC[C@H]2Cn3cc(-c4ccccc4)nc3CO2)n1` | 11.86 |
| `NC(=O)C1CCCN1Cc1nccn1CC(F)(F)F` (centres unmarked) | 20.24 |
| `Cc1cc(Br)c(O)c(-c2nc(N3CCCCC3)sc2C)c1` | 8.919 |
| `CNC(=O)[C@@H]1C[C@@H](NC(=O)CSc2ccccc2)CN1C1CCOCC1` | 1.117 |
| `CC(C)CC(=O)N1CCN(C(=O)NC(C)C)CC2(CC(=O)N(C)C2)C1` (centres unmarked) | 18.73 |